Assay results reported in the supplement of paper PMC10849652.
This is one part of the list.

Amino acid sequences for entries named in this document (tags omitted). A change or cut given only in a name is not applied to a line headed by its entry.
UniProt Q9NP72: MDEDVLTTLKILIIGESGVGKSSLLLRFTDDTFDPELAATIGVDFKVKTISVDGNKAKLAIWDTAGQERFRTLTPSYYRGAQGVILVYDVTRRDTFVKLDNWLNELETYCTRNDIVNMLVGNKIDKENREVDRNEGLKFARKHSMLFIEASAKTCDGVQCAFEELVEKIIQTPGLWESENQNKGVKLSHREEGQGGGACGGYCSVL
UniProt P54727: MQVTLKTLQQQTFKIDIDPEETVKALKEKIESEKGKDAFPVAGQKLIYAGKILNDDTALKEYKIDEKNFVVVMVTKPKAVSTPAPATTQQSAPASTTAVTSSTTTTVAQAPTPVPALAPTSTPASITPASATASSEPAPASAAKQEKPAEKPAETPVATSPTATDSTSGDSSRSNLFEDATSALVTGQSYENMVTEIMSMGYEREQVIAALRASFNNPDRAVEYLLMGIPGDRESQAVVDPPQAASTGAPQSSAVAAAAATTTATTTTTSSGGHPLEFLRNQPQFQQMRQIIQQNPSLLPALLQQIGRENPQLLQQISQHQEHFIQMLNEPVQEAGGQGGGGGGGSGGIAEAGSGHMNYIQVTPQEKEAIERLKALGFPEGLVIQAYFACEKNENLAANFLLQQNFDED
UniProt Q15042: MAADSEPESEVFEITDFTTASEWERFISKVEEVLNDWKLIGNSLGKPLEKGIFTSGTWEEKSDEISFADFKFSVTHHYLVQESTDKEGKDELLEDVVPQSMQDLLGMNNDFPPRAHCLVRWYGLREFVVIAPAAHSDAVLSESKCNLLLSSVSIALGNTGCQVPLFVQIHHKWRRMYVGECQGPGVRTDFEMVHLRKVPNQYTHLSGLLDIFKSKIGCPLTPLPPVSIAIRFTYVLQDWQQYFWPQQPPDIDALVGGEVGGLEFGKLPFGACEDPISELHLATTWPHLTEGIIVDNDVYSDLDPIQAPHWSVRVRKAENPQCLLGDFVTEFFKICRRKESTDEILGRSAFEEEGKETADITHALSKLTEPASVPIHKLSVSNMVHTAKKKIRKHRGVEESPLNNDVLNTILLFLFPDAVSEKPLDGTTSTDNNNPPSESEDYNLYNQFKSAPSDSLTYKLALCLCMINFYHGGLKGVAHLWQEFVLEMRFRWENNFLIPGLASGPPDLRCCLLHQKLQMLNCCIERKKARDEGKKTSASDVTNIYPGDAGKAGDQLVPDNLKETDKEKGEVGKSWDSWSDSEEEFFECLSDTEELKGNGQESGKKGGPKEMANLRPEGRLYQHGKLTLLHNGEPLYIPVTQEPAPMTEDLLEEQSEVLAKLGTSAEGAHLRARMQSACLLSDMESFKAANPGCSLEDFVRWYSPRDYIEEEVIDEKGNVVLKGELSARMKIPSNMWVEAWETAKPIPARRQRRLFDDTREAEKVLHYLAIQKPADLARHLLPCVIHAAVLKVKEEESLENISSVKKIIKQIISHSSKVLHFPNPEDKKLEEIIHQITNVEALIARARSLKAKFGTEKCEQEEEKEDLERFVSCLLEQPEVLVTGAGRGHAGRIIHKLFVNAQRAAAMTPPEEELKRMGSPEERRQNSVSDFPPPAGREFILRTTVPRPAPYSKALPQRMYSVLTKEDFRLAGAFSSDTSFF
UniProt Q6ZRP7: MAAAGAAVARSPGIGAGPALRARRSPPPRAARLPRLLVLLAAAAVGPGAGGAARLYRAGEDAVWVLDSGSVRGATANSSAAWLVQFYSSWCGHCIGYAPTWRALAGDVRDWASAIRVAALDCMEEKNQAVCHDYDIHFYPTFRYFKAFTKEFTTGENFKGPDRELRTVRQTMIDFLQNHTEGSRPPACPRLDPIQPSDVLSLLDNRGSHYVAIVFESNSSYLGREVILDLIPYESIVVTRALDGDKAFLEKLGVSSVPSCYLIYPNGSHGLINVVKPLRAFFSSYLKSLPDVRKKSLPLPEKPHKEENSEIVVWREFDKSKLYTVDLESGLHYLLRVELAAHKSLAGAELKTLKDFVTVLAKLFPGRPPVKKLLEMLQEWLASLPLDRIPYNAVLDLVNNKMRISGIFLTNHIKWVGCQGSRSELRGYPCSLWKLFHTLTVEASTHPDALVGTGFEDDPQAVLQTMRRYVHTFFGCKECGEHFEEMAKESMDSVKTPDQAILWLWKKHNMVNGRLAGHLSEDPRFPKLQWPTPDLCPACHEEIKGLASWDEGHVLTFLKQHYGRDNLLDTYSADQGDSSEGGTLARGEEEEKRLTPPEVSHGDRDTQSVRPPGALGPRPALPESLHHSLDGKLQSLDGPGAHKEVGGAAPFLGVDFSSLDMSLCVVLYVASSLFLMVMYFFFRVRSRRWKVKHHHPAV
UniProt Q53S08: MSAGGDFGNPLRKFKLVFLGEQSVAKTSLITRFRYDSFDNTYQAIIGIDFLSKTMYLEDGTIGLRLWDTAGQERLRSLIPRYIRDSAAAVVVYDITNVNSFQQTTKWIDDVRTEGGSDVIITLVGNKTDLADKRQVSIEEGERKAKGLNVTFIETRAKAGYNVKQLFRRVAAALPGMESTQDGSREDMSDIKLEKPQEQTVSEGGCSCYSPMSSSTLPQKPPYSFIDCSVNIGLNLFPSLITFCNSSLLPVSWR
UniProt Q86X10: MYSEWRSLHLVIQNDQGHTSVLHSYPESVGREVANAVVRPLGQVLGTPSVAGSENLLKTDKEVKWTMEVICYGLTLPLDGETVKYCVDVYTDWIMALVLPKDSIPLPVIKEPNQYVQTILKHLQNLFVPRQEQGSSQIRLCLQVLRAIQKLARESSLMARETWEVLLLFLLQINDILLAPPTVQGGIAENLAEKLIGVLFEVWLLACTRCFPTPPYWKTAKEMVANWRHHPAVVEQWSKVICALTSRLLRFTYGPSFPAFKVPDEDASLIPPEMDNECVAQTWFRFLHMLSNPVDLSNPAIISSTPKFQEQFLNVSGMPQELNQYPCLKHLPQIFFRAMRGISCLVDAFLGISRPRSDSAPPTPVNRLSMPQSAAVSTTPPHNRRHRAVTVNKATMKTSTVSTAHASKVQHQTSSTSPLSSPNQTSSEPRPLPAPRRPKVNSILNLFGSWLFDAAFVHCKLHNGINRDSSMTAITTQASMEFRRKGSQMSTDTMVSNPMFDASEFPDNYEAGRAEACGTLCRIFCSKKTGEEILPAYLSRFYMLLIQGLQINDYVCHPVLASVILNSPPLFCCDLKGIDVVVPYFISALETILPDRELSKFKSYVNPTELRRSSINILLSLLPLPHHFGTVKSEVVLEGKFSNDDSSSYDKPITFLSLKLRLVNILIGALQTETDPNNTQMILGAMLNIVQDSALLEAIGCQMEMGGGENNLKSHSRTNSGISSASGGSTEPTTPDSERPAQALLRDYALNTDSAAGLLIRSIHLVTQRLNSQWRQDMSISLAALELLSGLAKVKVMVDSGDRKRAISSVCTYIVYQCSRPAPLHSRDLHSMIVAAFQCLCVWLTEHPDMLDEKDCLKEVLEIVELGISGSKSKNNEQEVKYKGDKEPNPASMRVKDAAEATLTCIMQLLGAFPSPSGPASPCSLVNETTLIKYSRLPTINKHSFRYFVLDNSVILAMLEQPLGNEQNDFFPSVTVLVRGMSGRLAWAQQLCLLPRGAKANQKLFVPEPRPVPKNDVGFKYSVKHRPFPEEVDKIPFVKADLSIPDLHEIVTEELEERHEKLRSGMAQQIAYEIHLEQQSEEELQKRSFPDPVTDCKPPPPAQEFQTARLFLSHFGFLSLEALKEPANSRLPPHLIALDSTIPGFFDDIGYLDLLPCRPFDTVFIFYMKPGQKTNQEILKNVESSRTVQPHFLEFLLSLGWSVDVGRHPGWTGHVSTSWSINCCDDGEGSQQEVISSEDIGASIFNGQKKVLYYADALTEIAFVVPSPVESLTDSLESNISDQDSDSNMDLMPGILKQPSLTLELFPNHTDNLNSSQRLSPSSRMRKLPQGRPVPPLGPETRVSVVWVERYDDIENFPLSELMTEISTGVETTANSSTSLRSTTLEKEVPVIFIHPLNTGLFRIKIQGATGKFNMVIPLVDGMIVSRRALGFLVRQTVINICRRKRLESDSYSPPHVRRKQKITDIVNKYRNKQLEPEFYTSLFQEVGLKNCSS
UniProt O60518: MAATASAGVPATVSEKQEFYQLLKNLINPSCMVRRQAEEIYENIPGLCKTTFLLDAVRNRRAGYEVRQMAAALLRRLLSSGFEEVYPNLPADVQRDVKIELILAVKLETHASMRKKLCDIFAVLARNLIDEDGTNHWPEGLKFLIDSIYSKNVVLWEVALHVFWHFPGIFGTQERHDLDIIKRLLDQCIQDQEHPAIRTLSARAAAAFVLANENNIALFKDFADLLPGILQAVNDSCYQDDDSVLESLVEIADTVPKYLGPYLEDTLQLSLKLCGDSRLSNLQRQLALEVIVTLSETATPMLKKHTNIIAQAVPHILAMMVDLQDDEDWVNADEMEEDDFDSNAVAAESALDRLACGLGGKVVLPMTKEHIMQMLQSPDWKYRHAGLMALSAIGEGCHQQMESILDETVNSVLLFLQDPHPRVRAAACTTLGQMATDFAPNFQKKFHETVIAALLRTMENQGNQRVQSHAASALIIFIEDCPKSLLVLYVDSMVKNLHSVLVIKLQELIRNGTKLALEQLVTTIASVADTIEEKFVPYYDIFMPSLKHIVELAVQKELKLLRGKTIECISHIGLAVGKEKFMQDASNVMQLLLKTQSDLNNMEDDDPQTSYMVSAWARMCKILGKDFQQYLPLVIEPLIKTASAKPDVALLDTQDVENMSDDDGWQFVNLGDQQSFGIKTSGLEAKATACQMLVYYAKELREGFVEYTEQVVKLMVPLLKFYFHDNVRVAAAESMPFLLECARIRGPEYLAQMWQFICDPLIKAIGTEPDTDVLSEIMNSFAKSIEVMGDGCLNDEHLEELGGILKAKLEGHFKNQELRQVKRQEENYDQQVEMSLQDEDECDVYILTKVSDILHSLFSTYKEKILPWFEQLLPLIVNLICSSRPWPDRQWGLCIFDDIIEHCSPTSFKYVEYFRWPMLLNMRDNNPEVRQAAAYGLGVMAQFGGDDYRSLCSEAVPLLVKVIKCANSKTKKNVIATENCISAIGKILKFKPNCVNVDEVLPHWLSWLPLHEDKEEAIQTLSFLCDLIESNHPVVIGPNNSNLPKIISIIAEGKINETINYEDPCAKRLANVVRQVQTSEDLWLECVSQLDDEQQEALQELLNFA
UniProt Q9NS91, whole entry, looked up: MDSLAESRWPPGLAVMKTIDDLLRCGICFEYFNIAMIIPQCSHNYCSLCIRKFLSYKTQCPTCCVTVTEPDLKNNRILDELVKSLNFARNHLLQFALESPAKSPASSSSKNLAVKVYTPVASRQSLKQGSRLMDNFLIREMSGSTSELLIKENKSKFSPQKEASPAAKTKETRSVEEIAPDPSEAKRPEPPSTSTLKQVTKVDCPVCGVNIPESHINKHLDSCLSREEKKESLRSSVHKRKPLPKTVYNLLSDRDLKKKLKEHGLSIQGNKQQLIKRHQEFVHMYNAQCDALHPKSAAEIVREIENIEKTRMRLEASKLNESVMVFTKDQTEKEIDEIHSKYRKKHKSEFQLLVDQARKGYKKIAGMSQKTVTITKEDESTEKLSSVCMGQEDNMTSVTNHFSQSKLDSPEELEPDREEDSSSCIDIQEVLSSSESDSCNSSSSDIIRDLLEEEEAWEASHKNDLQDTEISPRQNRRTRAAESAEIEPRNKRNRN
UniProt Q9H0H5: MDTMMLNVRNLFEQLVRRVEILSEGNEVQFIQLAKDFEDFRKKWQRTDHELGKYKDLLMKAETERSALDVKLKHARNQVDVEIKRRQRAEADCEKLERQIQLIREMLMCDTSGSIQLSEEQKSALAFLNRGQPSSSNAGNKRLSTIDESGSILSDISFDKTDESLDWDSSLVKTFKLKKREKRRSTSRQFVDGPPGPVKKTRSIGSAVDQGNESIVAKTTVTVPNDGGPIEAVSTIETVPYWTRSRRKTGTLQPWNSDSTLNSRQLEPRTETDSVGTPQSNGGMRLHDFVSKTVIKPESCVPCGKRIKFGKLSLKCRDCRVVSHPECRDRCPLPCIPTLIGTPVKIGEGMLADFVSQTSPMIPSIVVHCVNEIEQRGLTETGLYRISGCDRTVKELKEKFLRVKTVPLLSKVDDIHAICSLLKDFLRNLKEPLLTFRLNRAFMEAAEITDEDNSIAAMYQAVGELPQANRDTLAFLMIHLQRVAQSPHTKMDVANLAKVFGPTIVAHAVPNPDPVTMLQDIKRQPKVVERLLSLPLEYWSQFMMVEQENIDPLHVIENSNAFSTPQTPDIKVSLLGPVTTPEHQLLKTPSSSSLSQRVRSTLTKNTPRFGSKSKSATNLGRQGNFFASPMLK
UniProt P09417: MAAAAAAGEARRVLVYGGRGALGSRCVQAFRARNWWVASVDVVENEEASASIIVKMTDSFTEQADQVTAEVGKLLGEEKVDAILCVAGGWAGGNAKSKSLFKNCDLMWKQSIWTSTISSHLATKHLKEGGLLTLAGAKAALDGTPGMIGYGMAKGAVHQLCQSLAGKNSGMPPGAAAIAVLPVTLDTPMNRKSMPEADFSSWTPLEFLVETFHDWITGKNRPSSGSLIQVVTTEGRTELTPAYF

Compound: O=C1NC(=O)C(c2cnc3ccccn23)=C1c1cn2c3c(cc(F)cc13)CN(C(=O)N1CCCCC1)CC2
Assay: log2 fold change, soluble protein after heating vs DMSO (PISA); higher = thermal stabilisation; K562 lysate, 10 uM; active = over 0.2 and 3.5 SD of the protein, either way, in both replicates (recomputed)
Method in brief: (§1)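 Values give the log-two fold change in thermal stability against solvent controls, from duplicates. Crude K562 extract at 1 mg/mL protein, made by dounce homogenisation in PBS pH 7.4 with 1 mM MgCl2, was treated with 10 μM compound for 30 min. After 3 min heating across 48°C-58°C, aliquots were pooled, adjusted to 0.5% NP-40 at 4°C and centrifuged at 21,000xg for 90 min. The supernatant was measured by TMTpro 16plex LC-MS/MS with channel sums equalised.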

log2 fold change, inactive:
QPCTL (UniProt Q9NXS2) 0.051
RALY (UniProt Q9UKM9) 0.031
QKI (UniProt Q96PU8) 0.045
RAB18 (UniProt Q9NP72) -0.007
RAD23B (UniProt P54727) 0.002
RAB3GAP1 (UniProt Q15042) -0.009
PXMP2 (UniProt Q9NR77) 0.066
QSOX2 (UniProt Q6ZRP7) -0.001

Compound: c1cn2cc(-c3ccc4cn[nH]c4c3)nc(Nc3ccc(N4CCOCC4)cc3)c2n1 [entospletinib]
Assay: as above
Method in brief: as §1

log2 fold change, inactive:
RALB isoform 2 (UniProt P11234) -0.07
RAI14 isoform 2 (UniProt Q9P0K7) -0.003
RAB6D (UniProt Q53S08) -0.01
RALGAPB (UniProt Q86X10) -0.029
RAB3IP (UniProt Q96QF0) -0.05
RANBP6 (UniProt O60518) 0.011
RAD18 (UniProt Q9NS91) -0.017
RANBP1 (UniProt P43487) -0.007
RACGAP1 (UniProt Q9H0H5) -0.015
RAB28 (UniProt P51157) -0.048
RAB31 (UniProt Q13636) -0.127
RAB23 (UniProt Q9ULC3) 0.057
RAP2B (UniProt P61225) -0.06
QDPR (UniProt P09417) 0.012
RAB3D (UniProt O95716) -0.011

2 records drawn at random from those above:
log2 fold change, inactive:
RALGAPB (UniProt Q86X10) -0.029
RALB isoform 2 (UniProt P11234) -0.07
